Data taken from patent US7238469B2, “Carbon monoxide improves outcomes in tissue and organ transplants and suppresses apoptosis” (priority 2001, dated 2007).
At least one compound was matched to its structure with a doubt left.

Tested on: islet cell grafts
Experiment: Islet graft survival after induction of HO-1 by CoPP in donors and recipients
Format: in vivo, mouse
Conditions: 350–400 islets, individual recipients
Method: Whether induction of HO-1 in donors and recipients would protect islet cell grafts was investigated. The following procedures were utilized to generate the data illustrated in Table 1, below. A mouse model was utilized for the experiments. Donors of islet cells were treated with cobalt protoporphyrin (CoPP) (20 mg/kg) once per day before islet cell isolation. Recipients of islet cell grafts were treated with CoPP (20 mg/kg) once per day on days 1, 3, 5, 7 or with CoPP (10 mg/kg) once per day on days 1, 3, 5, 7, 9, 11, 13, 15, and 17. Treatment with CoPP induces expression of heme oxygenase-1 (HO-1).
Listed under “rejection day” are the days to which islets survived. For instance, “>51×2”, means that islets in 2 recipients were still surviving after 51 days. The mean date of rejection is shown in the fourth column.

SMILES: C=CC1=C(C)c2cc3[n-]c(cc4nc(cc5[n-]c(cc1n2)c(C)c5CCC(=O)[O-])C(CCC(=O)[O-])=C4C)c(C)c3C=C.[Co+2].[H+].[H+] [CoPP, cobalt protoporphyrin]
- Rejection day (CoPP 10 mg/kg × 10): 30, 30 day
- Rejection day (CoPP 20 mg/kg × 5): 17, 33, 33, 48 day
